Source: paper doi:10.1101/2023.08.08.552518

Tested on: human alpha-thrombin + anti-thrombin monoclonal antibody 5020
Experiment: bead sandwich flow cytometry
Settings: 300 nM thrombin, antibody 5020, most robust pair

## GGTTGGTGTGGTTGG [TBA-Cy5]
  binding result: binds

Construct, isoform or probe ends are uncertain for at least one entry.
